The data set can be described thus: general procedure: solution-phase peptide synthesis; DEPC/DIEA; HATU/DIEA. To be noted: trifluoroacetic acid.

Turning to “9H-fluoren-9-ylmethyl N-[(1S)-1-[[(3R,4S,5S)-3-methoxy-1-[(2S)-2-[(1R,2R)-1-methoxy-2-methyl-2-[[(1 S)-2-phenyl-1-(1,3-thiazol-2-yl)ethyl]carbamoyl]ethyl]pyrrolidin-1-yl]-5-methyl-1-oxoheptan-4-yl](methyl) carbamoyl]-2-methylpropyl]carbamate”, the step yield (coupling step) was determined as 71%. With “((2R,3R)-3-((S)-1-((3R,4S,5S)-4-((S)-2-((S)-2-((4-aminophenethyl)(methyl)amino)-3-methylbutanamido)-N,3-dimethylbutanamido)-3-methoxy-5-methylheptanoyl)pyrrolidin-2-yl)-3-methoxy-2-methylpropanoyl)-L-phenylalanine 2,2,2-trifluoroacetate”, the “final HPLC purity” value (late stage modification step, 220 nm) is 100%. Also, the step yield (late stage modification step) was determined as 66%. Turning to “Methyl ((2R,3R)-3-((S)-1-((3R,4S,5S)-4-((S)-2-((S)-2-((4-aminophenethyl)(methyl)amino)-3-methylbutanamido)-N,3-dimethylbutanamido)-3-methoxy-5-methylheptanoyl)pyrrolidin-2-yl)-3-methoxy-2-methylpropanoyl)-L-phenylalaninate”, the step yield (coupling step) was 45%.

The values above are taken from patent US9669106 (dated 2017).
